Some of the results follow. This data set is noisy: repeats of one test often differ as much as different tests do.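 Human kidney-derived cells stably carry a construct in which eight TEAD-binding elements drive luciferase, measured by luminescence in a drug-repurposing library screen. A hit is any compound whose signal exceeds the plate mean by more than five robust Z scores.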
Tested on: HEK293A TEAD-LUC reporter
Assay: TEAD-luciferase reporter activity (YAP activation), robust Z score vs plate; higher = stronger YAP/TEAD activation
Conditions: 24 h

| Structure (SMILES) | TEAD-luciferase reporter activity (compound concentration: 2 uM) | TEAD-luciferase reporter activity (compound concentration: 200 nM) | TEAD-luciferase reporter activity (compound concentration: 10 uM) |
| --- | --- | --- | --- |
| C[C@]12O[C@H](C[C@]1(O)CO)n1c3ccccc3c3c4c(c5c6ccccc6n2c5c31)CNC4=O [lestaurtinib] | inactive: 0.972 |  |  |
| C[C@]12O[C@H](C[C@]1(O)CO)n1c3ccccc3c3c4c(c5c6ccccc6n2c5c31)CNC4=O [Lestaurtinib] |  | inactive: 4.33 | inactive: -1.62 |
| O=C1NC(=S)NC(=O)C12CC=CCC2 | inactive: 0.176 | inactive: -1.75 | inactive: -0.0765 |
| CC(C)c1ccccc1OCC1=NCCN1 | inactive: 0.947 | inactive: -1.26 | inactive: -0.733 |
| CN1C2CCC1CC(OC(c1ccccc1)c1ccc(Cl)cc1)C2 (stereo not given) | inactive: -0.769 | inactive: 2.18 | inactive: 3.47 |
| O=P1(NCCCl)OCCCN1CCCl (stereo not given) [ifosfamide] |  | inactive: -0.485 | inactive: 1.71 |
| Cc1c(N(C)C)ccc(Br)c1N=C1NCCN1 | inactive: 1.07 | inactive: -2.16 | active: 6.69 |
| COc1ccc(OC)c(C(O)C(C)N)c1 (stereo not given) [methoxamine gel] | inactive: -2.53 |  |  |
| COc1ccc(OC)c(C(O)C(C)N)c1 (stereo not given) [methoxamine gel, Norgine] |  | inactive: -0.38 | inactive: -0.572 |
| CS(=O)(=O)Nc1nc(CN2CCC(c3c[nH]c4ccccc34)CC2)cs1 | inactive: -0.663 | inactive: -1.65 | active: 7.85 |
| O=C1CCO1 | inactive: 0.126 | inactive: -1.51 | inactive: -0.304 |
| CCN1CCOC2Cc3c(SC)ccc(OC)c3CC21 (stereo not given) | inactive: 0.91 | inactive: -0.536 | inactive: -0.585 |
| CCCN(CCC)[C@@H]1CCc2ccc3[nH]c(C#N)cc3c2C1 | inactive: 0.0471 | inactive: -0.427 | inactive: 1.92 |
| CNC(=O)ON(C(C)=O)C(=O)NC [Caracemide] | inactive: -1.77 | inactive: 1.78 | inactive: -1.68 |
| CN1CCC(N(Cc2ccccc2)c2ccccc2)CC1 | inactive: -0.0928 | inactive: -1.05 | inactive: -1.47 |
| COc1ccc2[nH]cc(CCN(C(C)C)C(C)C)c2c1 | inactive: 4.41 | inactive: 1.17 | active: 19.2 |
| CNCCc1ccc(O)c(O)c1 [Epinine] | inactive: 0.0245 | inactive: 2.42 | inactive: -0.75 |
| C[C@]12C=CC(=O)C(N)=C1C=C[C@@H]1[C@@H]2CC[C@]2(C)C(=O)CC[C@@H]12 | inactive: -0.991 | inactive: -1.29 | inactive: 1.17 |
| COc1cc2c(cc1O)C(CCc1ccc(Cl)cc1)N(C)CC2 (stereo not given) | inactive: -1.01 | inactive: -0.943 | inactive: 1.64 |

Whole records as entered above.
C[C@]12O[C@H](C[C@]1(O)CO)n1c3ccccc3c3c4c(c5c6ccccc6n2c5c31)CNC4=O [lestaurtinib] reads TEAD-luciferase reporter activity (compound concentration: 2 uM): inactive: 0.972
CS(=O)(=O)Nc1nc(CN2CCC(c3c[nH]c4ccccc34)CC2)cs1 reads TEAD-luciferase reporter activity (compound concentration: 2 uM): inactive: -0.663; TEAD-luciferase reporter activity (compound concentration: 200 nM): inactive: -1.65; TEAD-luciferase reporter activity (compound concentration: 10 uM): active: 7.85

— the supplement of paper PMC10735217
